This is a selection; strong and weak results do not stand in their true shares. The source made the active and inactive calls. Cut-off read from the data, not from the text of the source: active = inhibition mostly above about 28% (no sharp cut-off); inactive = mostly below about 22%.

A short description of this assay: PMA/ionomycin-induced NF-kB reporter inhibitors, 697 retest, confirmation, B-cell NF-kB inhibitor project, cell-based, luminescence, single concentration (AID 449746). The following applies: 697 B-cell NF-kB luciferase, 16 h, at 4 µM, active compounds read high.
As usually defined, the inhibition is the drop in the measured response relative to a control, in per cent. `CN[C@H]1C[C@H]2O[C@@](C)([C@H]1OC)n1c3ccccc3c3c4c(c5c6ccccc6n2c5c31)C(=O)NC4`: the inhibition was active: 105%.

Source of the values: PubChem BioAssay AID449746 (Sanford-Burnham Center for Chemical Genomics, 2010).
